These are yes or no findings as the source states them, for the method shown. Binding seen in cells or lysates may run through a third protein. A yes stands for co-enrichment or nearness to the bait. Other partners may have been found. Tags and fused reporters may be left off the sequences shown.
Target: T1, GST-PrkC (Serine/threonine-protein kinase PrkC) (Bacillus subtilis str. 168) (UniProt O34507)
T1 sequence: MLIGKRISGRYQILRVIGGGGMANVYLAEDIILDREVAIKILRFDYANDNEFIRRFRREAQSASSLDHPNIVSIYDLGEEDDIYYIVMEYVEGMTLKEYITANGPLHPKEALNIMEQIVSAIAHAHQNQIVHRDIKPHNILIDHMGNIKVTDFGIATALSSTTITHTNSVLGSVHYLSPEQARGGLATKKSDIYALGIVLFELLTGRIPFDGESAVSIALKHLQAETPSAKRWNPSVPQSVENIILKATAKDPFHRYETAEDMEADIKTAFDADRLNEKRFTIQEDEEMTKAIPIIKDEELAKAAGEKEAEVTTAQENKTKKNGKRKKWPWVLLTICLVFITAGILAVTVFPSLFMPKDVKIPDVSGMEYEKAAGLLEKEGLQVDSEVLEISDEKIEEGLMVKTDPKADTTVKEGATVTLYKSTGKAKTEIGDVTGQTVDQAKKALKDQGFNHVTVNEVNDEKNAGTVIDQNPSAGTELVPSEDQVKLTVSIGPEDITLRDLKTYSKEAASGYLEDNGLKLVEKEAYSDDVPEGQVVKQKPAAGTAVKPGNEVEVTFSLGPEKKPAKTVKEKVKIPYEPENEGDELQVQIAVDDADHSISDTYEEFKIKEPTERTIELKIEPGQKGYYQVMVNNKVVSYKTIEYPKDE
Test: affinity purification with mass spectrometry; GST-PrkC on glutathione resin incubated with B. subtilis spore lysate at 4 °C; resin washed; bound proteins eluted with 20 mM reduced glutathione; eluate digested with trypsin and analysed by LC-MS/MS; hits filtered at 1% FDR, >=2 unique peptides; only the target purified

B1: Uncharacterized oxidoreductase YrbE (protein, UniProt O05389 1-341)
chain: MTKQIVTGIIGAGRIGKLHVQNISRIPHMKIKAISDIQASRIKSWADSHQIEYITSDYRDLLHDPDIDAIFICSPTAVHAQMIKEAAEAKKHIFCEKPVSFSLDETSEALAAVRKHGVTLQVGFNRRFDPHFKKIKTIVENGEIGTPHLLKITSRDPEPPNIDYVRTSGGLFMDMSIHDFDMARYIMGSEVTEVYAKGAALVNPSFAELGDIDTAVITLTFENGAMAVIDNSRQAVYGYDQRVEVFGTKGSAAADNSRPTTVEVSTADFVMKDKPHFFFLERYKDSYEEEILRFAEAIGTNQETPCTGNDGLQAGRIARAAQQSLAFGMPVSIEHTEKIAF
- binding: binds

B2: UPF0354 protein YtpQ (protein, UniProt O34496 1-269)
chain: MKMTSRKLSDILKQRLQHENRSFLFDREKDTLRVEDQTTKKGITLDLPPIIAKWELKKDEAIDEIVYYVSEAMTAMEGKAQEMTGKETRIYPVIRSTSFPDKSSEDIPLIYDDHTAETRIYYALDLGKTYRLIDQRMLEKENWTKERIRETAAFNLRSLPTVVKEDTVAGNYFYFFRANDGYDASRILNEAILNEYKQHAEGELAISVPHQDVLILADIRNESGYDILGQMSMSFFAGGTVPITALSFLYNEGKLEPVFILAKSRPKKD
- binding: binds

B3: Uncharacterized ATP-dependent helicase YprA (protein, UniProt P50830 1-749)
chain: MKKKSLTELISDLKGNENVVNWHEIEPREAKTRPMPESIDERIKAALSKRGIDELYTHQYSAFQYVQKGESIVTVTPTASGKTLCYNLPVLQSIAQDETNRALYLFPTKALAQDQKSELNEIIDEMGIDIKSFTYDGDTSPAIRQKVRKAGHIVITNPDMLHSAILPHHTKWVSLFENLKYIVIDELHTYRGVFGSHVANVIRRLKRICRFYGSDPVFICTSATIANPKELGEQLTGKPMRLVDDNGAPSGRKHFVFYNPPIVNKPLNIRRSATAEVNELAKEFLKNKVQTIVFARSRVRVEIILSHIQELVKKEIGTKSIRGYRGGYLPKERREIERGLREGDILGVVSTNALELGVDIGQLQVCVMTGYPGSVASAWQQAGRAGRRHGESLIIMVANSTPIDQYIVRHPEYFFNRSPESARINPENLIILVDHLKCAAYELPFRADEEFGAMEVSDILEYLQEEAVLHRNGERYHWASESFPASNISLRSASQENVVIVDQSDIANVRIIGEMDRFSAMTLLHDEAIYLHEGVQYQVEKLDWDHKKAYVRKVDVEYYTDANLAVQLKVLEIDKTKEKSRTSLHYGDVTVNALPTIFKKIKMTTFENIGSGPIHLPEEELHTSAAWLEIKTADEDIGEKTLEQLLLGISNVLQHIVPVYIMCDRNDVHVVSQIKAAHTGLPTIFLYDHYPGGIGLAEEVFKRFSDINEAAKQLITHCPCHDGCPSCIGTEIEGIKAKERILQLLDQMS
- binding: binds

B4: Laccase (protein, UniProt P07788 1-513)
chain: MTLEKFVDALPIPDTLKPVQQSKEKTYYEVTMEECTHQLHRDLPPTRLWGYNGLFPGPTIEVKRNENVYVKWMNNLPSTHFLPIDHTIHHSDSQHEEPEVKTVVHLHGGVTPDDSDGYPEAWFSKDFEQTGPYFKREVYHYPNQQRGAILWYHDHAMALTRLNVYAGLVGAYIIHDPKEKRLKLPSDEYDVPLLITDRTINEDGSLFYPSAPENPSPSLPNPSIVPAFCGETILVNGKVWPYLEVEPRKYRFRVINASNTRTYNLSLDNGGDFIQIGSDGGLLPRSVKLNSFSLAPAERYDIIIDFTAYEGESIILANSAGCGGDVNPETDANIMQFRVTKPLAQKDESRKPKYLASYPSVQHERIQNIRTLKLAGTQDEYGRPVLLLNNKRWHDPVTETPKVGTTEIWSIINPTRGTHPIHLHLVSFRVLDRRPFDIARYQESGELSYTGPAVPPPPSEKGWKDTIQAHAGEVLRIAATFGPYSGRYVWHCHILEHEDYDMMRPMDITDPHK
- binding: binds

B5: SPbeta prophage-derived uncharacterized protein YolB (protein, UniProt O31993 1-118)
chain: MISTSNYDVTKDPKFLAFCSLATEGYGQNNTQQSSIGFNEFCEKLEKNAIVKPENKKSTLDLNKSLEDWKLRFTAGGNLSTMDSQVLDVIKKAYNLGMVNKDNMLLRNEAINAYRNSI
- binding: binds

B6: Endolytic murein transglycosylase (protein, UniProt O34758 1-360)
chain: MYINQQKKSFFNKKRIILSSIVVLFLIIGGAFLYGKSLLEPVEKDSKTTVNINIPSGSSVSAIASILKKNDVIKSEKAFQYYVKYKGASGFQAGFYHLNKGMDLDAIIQKLTSGATGYAFQITVTEGAQLTQIAAAIADETKYSKKQVIAKLDDETFINQLKKEFPDTVTNDVFNKNIKHPLEGYLFPATYPFNDPDTSLEDIIKAMIKQTNSYVETYKSEMKKNKVSVHKLLTMASLIEEEATEKADRHKIASVFYNRLKKKMPLQTDPTVLYAAGKHKDRVLYKDLEIDSPYNTYKNTGLTPGPIANAGMSSWEAALHPDKTDYLYFLAKSNGEVVFTKTLKEHNKAKEKYISSKNEK
- binding: binds

B7: Uncharacterized protein YqeW (protein, UniProt P54463 1-307)
chain: MLILISFTALILFFLAGMNMLRKGLISMAYSKIEERLLLFTDHPLKAFLISIVFTGILQSSSAFMVIVIGFVSAGVLSFKRTIPMILGTNVGSTFTTEFIAIKMDIVIWVLLIGGLLFFLTGRYPLKQLGTSFLGLGIIFFCISGFSHLAGPLTKLKTGADVLYHVNDSNWSALLIGMVLTAIIHSSSVCIGILMSFMNEGIIGLTQAMSVVLGSNIGTCITAVMAAVSGGYAAKQTAYAHVVFNVLGVALVLPFLTAATGFVEQLSPDPAQKIAHFSLLFNVVTALLFLPLTNLFYRLIHLLIPAK
- binding: binds

B8: ATP-dependent DNA helicase RecQ (protein, UniProt O34748 1-591)
chain: MLHRAQSLLAHYFGYEKFRSGQDEAIRLVTEARQNTACIMPTGGGKSICYQIPALMFEGTTIVISPLISLMKDQVDALEEAGINAAYINSTQSNQEIYERLNGLKEGAYKLFYITPERLTSIEFIRILQGIDVPLVAIDEAHCISQWGHDFRPSYRNIEILFRELHDKPVIMALTATATPEVHDDICKQLHIQKENTVYTGFSRENLTFKVVKGENKDRFIDEYVQNNRHEAGIVYTATRKEADRIYERLKRNQVRAGRYHGGLADDVRKEQQERFLNDELQVMVATSAFGMGIDKSNIRFVLHAQIPKDMESYYQEAGRAGRDGLASECVLLFSPQDIMVQRFLIEQSEHEEKQKQDLKKLRQMVDYCHTEDCLQRFILMYFGEKEPDACGQCGNCTDTRAAHDVTREAQMVLSCIIRMKERFGKTMVAQVLAGSKNKKVLENGFSDLSTYGILKHQSVGEISDFIEFLISDDFIRMSDGTFPTLFVSSKGRNVLKGELSVARKEALKAAAITENDELFERLRMVRKEIAAEQGVPPFVVFSDQTLKEMSGKQPVNDDELLSIKGVGEQKRAKYGRLFLQEIQAYARMTD
- binding: binds

B9: Uncharacterized protein YqhR (protein, UniProt P54516 1-178)
chain: MMTSEKDTEQNEELNEKQKPPVSMAGRVAATGFCGGVLWSFVAYIAYLFHFSEISPNMILQPFVLGEWKKHGLGTVISIILIGVISIGAAFLYFLLLKRLKTMWPGILYGLVLWLLVFFVFNPIFPDVRTVTELTSDTIITTICIYLLYGLFVGYSISFEYNELNSEKLARALGMHRE
- binding: binds

B10: Toxin YqcG (protein, UniProt P45942 1-531)
chain: MKVFEAKTLLTEAEKRAQEYKDLKSKMVKLKKAFKAVADLDDSEFSGKGANNIKSFYEDQAGIADQWIDLIEMKISFLTSIPGFLEDANLSDAYIEETFLAHELANAYTKSKSIMSEQKKAMKDILNDINDILPLDLFSTETFKNELSSAEKKRKEAIEKMDEVDQNLTSEYGLSEANEQMIQADYQALMNATAKGKSASPIHYNAKAYRDSEIHKMTEDVKKQSTDYISFKDQQAEQRRIAKEQEELANRPWYEKSWDAVCNFTGEVSGYYDYKRAADGVDPVTGEKLTAGQRVAAGAMAAAGYIPIVGWAGKLAKGGKAVYSTSKALYRADKALDVYKTPKTFHALQNSSKGLYGLASANGFSEAITGRDMFGNKVSKERQEQSLSGAMAMLVPFGARGINKKLNAKSSSRVSEASTNTSKKPKVPKTYKRPTYFRKGVRDKVWENAKDSTGSVKDPLTKQVMKKDEPWDMGHKPGYEFRKHQQSAMERNISRKQFLDEHNNPDHYQPELPSSNRSHKGEDMTDDYFGD
- binding: binds

B11: Uncharacterized N-acetyltransferase YoaA (protein, UniProt O34569 1-177)
chain: MFPILETDRLILRQITDQDAEAIFACFSNDEVTRYYGLENMESIEQAISMIQTFAALYQEKRGIRWGIERRDTKELIGTIGFHALAQKHRRAEIGYEIIPEHWRNGFASEVISKVVSYGFSALGLSRIGAVVFTDNEASNRLLLKMGFQKEGVLRQYMYQNGTPYDTNVYSIVKPRE
- binding: binds

— article PMC12029333
